Assay [1] has as its target Ser/Thr protein kinase CK1α (human (endogenous in DLD1, U2OS, A549, TOV-21G)) (UniProt P48729). Briefly: co-IP; anti-CK1α antibody (sheep, SA527) IP of endogenous CK1α from extracts of asynchronous DLD1, U2OS, A549 and TOV-21G cells; NP-40 lysis buffer, 16 h at 4 °C, protein G Sepharose; IgG IP as negative control; immunoblot.
Assay [2] addresses Ser/Thr protein kinase CK1α (human (endogenous in DLD1, U2OS, A549, TOV-21G)), P48729. Described as above. Conditions: remark: other sources report otherwise.

Protein sequences, listed by entry. Tags and fused reporters are not part of them.
UniProt P48729: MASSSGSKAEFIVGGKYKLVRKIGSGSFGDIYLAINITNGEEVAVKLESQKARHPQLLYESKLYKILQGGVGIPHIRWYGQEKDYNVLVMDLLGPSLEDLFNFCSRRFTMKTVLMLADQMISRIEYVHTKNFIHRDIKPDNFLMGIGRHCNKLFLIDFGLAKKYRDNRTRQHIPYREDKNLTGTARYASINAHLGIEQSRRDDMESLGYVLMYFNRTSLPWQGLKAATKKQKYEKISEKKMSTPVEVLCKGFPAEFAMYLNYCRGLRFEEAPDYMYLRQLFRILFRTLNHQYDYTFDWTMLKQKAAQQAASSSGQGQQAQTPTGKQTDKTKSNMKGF
UniProt Q8NEG4: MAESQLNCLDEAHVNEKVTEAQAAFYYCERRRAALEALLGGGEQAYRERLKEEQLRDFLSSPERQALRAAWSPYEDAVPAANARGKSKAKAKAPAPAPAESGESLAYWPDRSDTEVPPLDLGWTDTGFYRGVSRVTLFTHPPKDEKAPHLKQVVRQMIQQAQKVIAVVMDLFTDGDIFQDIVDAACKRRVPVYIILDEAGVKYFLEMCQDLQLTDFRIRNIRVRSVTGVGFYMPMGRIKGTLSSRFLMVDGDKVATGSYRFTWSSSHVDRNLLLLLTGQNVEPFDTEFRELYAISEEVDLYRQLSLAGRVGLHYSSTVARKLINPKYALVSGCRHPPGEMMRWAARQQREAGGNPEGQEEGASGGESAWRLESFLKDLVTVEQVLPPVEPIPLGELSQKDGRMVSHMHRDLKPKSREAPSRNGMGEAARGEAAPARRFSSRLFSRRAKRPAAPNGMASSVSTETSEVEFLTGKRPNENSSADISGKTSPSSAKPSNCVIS

These are yes or no findings as the source states them, for the method shown. Binding seen in cells or lysates may run through a third protein. Some binding calls cover weakened binding; strength is not graded here.

In the case of “SACK1F (formerly FAM83F) (from UniProt Q8NEG4 1-500)”, in assay [1], the binding result is “binds”.

B1: SACK1B (formerly FAM83B) (protein, UniProt Q5T0W9 1-1011)
chain: METSSMLSSLNDECKSDNYIEPHYKEWYRVAIDILIEHGLEAYQEFLVQERVSDFLAEEEINYILKNVQKVAQSTAHGTDDSCDDTLSSGTYWPVESDVEAPNLDLGWPYVMPGLLGGTHIDLLFHPPRAHLLTIKETIRKMIKEARKVIALVMDIFTDVDIFKEIVEASTRGVSVYILLDESNFNHFLNMTEKQGCSVQRLRNIRVRTVKGQDYLSKTGAKFHGKMEQKFLLVDCQKVMYGSYSYMWSFEKAHLSMVQIITGQLVESFDEEFRTLYARSCVPSSFAQEESARVKHGKALWENGTYQHSVSSLASVSSQRNLFGRQDKIHKLDSSYFKNRGIYTLNEHDKYNIRSHGYKPHFVPNFNGPNAIRQFQPNQINENWKRHSYAGEQPETVPYLLLNRALNRTNNPPGNWKKPSDSLSVASSSREGYVSHHNTPAQSFANRLAQRKTTNLADRNSNVRRSFNGTDNHIRFLQQRMPTLEHTTKSFLRNWRIESYLNDHSEATPDSNGSALGDRFEGYDNPENLKANALYTHSRLRSSLVFKPTLPEQKEVNSCTTGSSNSTIIGSQGSETPKEVPDTPTNVQHLTDKPLPESIPKLPLQSEAPKMHTLQVPENHSVALNQTTNGHTESNNYIYKTLGVNKQTENLKNQQTENLLKRRSFPLFDNSKANLDPGNSKHYVYSTLTRNRVRQPEKPKEDLLKSSKSMHNVTHNLEEDEEEVTKRNSPSGTTTKSVSIAALLDVNKEESNKELASKKEVKGSPSFLKKGSQKLRSLLSLTPDKKENLSKNKAPAFYRLCSSSDTLVSEGEENQKPKKSDTKVDSSPRRKHSSSSNSQGSIHKSKEDVTVSPSQEINAPPDENKRTPSPGPVESKFLERAGDASAPRFNTEQIQYRDSREINAVVTPERRPTSSPRPTSSELLRSHSTDRRVYSRFEPFCKIESSIQPTSNMPNTSINRPEIKSATMGNSYGRSSPLLNYNTGVYRSYQPNENKFRGFMQKFGNFIHKNK
With B1, in assay [1], the binding entry is recorded as “binds”.

B2: SACK1D (formerly FAM83D), Q9H4H8 1-585 (protein)
chain: MALLSEGLDEVPAACLSPCGPPNPTELFSESRRLALEELVAGGPEAFAAFLRRERLARFLNPDEVHAILRAAERPGEEGAAAAAAAEDSFGSSHDCSSGTYFPEQSDLEPPLLELGWPAFYQGAYRGATRVETHFQPRGAGEGGPYGCKDALRQQLRSAREVIAVVMDVFTDIDIFRDLQEICRKQGVAVYILLDQALLSQFLDMCMDLKVHPEQEKLMTVRTITGNIYYARSGTKIIGKVHEKFTLIDGIRVATGSYSFTWTDGKLNSSNLVILSGQVVEHFDLEFRILYAQSKPISPKLLSHFQSSNKFDHLTNRKPQSKELTLGNLLRMRLARLSSTPRKADLDPEMPAEGKAERKPHDCESSTVSEEDYFSSHRDELQSRKAIDAATQTEPGEEMPGLSVSEVGTQTSITTACAGTQTAVITRIASSQTTIWSRSTTTQTDMDENILFPRGTQSTEGSPVSKMSVSRSSSLKSSSSVSSQGSVASSTGSPASIRTTDFHNPGYPKYLGTPHLELYLSDSLRNLNKERQFHFAGIRSRLNHMLAMLSRRTLFTENHLGLHSGNFSRVNLLAVRDVALYPSYQ
B2: in assay [2], the binding entry is given as “no binding”.

B3: SACK1H (formerly FAM83H) (protein, UniProt Q6ZRV2 1-1179)
chain: MARRSQSSSQGDNPLAPGYLPPHYKEYYRLAVDALAEGGSEAYSRFLATEGAPDFLCPEELEHVSRHLRPPQYVTREPPEGSLLDVDMDGSSGTYWPVNSDQAVPELDLGWPLTFGFQGTEVTTLVQPPPPDSPSIKDEARRMIRSAQQVVAVVMDMFTDVDLLSEVLEAAARRVPVYILLDEMNAQHFLDMADKCRVNLQHVDFLRVRTVAGPTYYCRTGKSFKGHVKEKFLLVDCAVVMSGSYSFMWSFEKIHRSLAHVFQGELVSSFDEEFRILFAQSEPLVPSAAALARMDAYALAPYAGAGPLVGVPGVGAPTPFSFPKRAHLLFPPPREEGLGFPSFLDPDRHFLSAFRREEPPRMPGGALEPHAGLRPLSRRLEAEAGPAGELAGARGFFQARHLEMDAFKRHSFATEGAGAVENFAAARQVSRQTFLSHGDDFRFQTSHFHRDQLYQQQYQWDPQLTPARPQGLFEKLRGGRAGFADPDDFTLGAGPRFPELGPDGHQRLDYVPSSASREVRHGSDPAFAPGPRGLEPSGAPRPNLTQRFPCQAAARPGPDPAPEAEPERRGGPEGRAGLRRWRLASYLSGCHGEDGGDDGLPAPMEAEAYEDDVLAPGGRAPAGDLLPSAFRVPAAFPTKVPVPGPGSGGNGPEREGPEEPGLAKQDSFRSRLNPLVQRSSRLRSSLIFSTSQAEGAAGAAAATEKVQLLHKEQTVSETLGPGGEAVRSAASTKVAELLEKYKGPARDPGGGAGAITVASHSKAVVSQAWREEVAAPGAVGGERRSLESCLLDLRDSFAQQLHQEAERQPGAASLTAAQLLDTLGRSGSDRLPSRFLSAQSHSTSPQGLDSPLPLEGSGAHQVLHNESKGSPTSAYPERKGSPTPGFSTRRGSPTTGFIEQKGSPTSAYPERRGSPVPPVPERRSSPVPPVPERRGSLTLTISGESPKAGPAEEGPSGPMEVLRKGSLRLRQLLSPKGERRMEDEGGFPVPQENGQPESPRRLSLGQGDSTEAATEERGPRARLSSATANALYSSNLRDDTKAILEQISAHGQKHRAVPAPSPGPTHNSPELGRPPAAGVLAPDMSDKDKCSAIFRSDSLGTQGRLSRTLPASAEERDRLLRRMESMRKEKRVYSRFEVFCKKEEASSPGAGEGPAEEGTRDSKVGKFVPKILGTFKSKK
Consider B3, for which the binding result in assay [1] is recorded as “binds”.

(Values after publication PMC13184940.)
